Results: paper PMC8461901
These are yes or no findings as the source states them, for the method shown. Binding seen in cells or lysates may run through a third protein. Some binding calls cover weakened binding; strength is not graded here.

Chains of the proteins cited; added tags and fusions are not shown.
UniProt P18085: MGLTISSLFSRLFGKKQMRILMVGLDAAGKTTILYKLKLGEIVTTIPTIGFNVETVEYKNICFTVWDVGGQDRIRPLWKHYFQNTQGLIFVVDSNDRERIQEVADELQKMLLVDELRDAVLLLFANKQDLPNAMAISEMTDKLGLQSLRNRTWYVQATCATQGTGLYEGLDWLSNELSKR
UniProt Q93009: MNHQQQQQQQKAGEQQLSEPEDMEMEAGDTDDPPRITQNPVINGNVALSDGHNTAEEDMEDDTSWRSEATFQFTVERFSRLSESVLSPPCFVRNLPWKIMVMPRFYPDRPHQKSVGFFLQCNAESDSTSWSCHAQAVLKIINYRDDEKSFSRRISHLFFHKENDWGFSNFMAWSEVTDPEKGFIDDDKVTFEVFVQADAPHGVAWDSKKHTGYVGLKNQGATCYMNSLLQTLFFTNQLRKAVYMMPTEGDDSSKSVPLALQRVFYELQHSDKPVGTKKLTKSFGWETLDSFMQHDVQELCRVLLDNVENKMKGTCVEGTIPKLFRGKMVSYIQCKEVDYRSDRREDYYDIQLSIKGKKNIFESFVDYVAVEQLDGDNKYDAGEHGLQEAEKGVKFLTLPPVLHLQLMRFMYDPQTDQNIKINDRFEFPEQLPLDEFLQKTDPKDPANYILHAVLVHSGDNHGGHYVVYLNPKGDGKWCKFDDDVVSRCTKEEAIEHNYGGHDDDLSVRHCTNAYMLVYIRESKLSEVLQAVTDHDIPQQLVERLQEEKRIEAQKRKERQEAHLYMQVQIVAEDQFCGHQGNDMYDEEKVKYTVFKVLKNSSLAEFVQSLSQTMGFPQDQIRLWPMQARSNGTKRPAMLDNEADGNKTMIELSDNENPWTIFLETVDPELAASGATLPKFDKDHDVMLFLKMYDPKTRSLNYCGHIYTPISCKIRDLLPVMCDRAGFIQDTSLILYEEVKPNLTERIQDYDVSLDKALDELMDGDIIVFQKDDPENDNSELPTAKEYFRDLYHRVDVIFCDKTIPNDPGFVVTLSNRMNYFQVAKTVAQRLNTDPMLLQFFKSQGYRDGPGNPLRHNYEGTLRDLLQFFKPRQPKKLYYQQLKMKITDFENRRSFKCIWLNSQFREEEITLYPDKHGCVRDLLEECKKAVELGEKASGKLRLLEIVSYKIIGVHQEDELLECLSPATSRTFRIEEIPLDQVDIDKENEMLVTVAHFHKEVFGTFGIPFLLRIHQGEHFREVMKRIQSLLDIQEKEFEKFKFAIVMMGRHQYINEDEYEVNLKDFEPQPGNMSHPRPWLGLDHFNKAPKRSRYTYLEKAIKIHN

Molecular target: ADP-ribosylation factor 4 (human (endogenous in SHG-140)) (UniProt P18085)
Assay: co-IP; anti-ARF4 added to SHG-140 cell protein extracts, protein A/G magnetic beads overnight at 4 °C, washed three times with lysis buffer, immunoblot

Ubiquitin-specific protease 7 (from UniProt Q93009 1-1102) (enzyme)
binding: binds
